{"sequences": {"note": "Protein sequences, listed by entry. Tags and fused reporters are not part of them.", "UniProt Q01094": "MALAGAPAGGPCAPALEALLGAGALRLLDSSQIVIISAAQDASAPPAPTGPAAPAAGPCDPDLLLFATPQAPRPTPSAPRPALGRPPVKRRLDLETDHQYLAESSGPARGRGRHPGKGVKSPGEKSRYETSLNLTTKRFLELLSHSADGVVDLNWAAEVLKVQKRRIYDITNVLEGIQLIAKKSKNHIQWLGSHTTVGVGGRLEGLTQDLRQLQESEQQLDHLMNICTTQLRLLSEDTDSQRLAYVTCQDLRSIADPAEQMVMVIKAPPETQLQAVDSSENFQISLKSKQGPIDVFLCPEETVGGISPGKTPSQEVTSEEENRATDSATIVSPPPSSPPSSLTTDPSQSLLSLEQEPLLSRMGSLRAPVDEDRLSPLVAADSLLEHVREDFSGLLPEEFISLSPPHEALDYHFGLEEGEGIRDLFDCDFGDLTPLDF", "UniProt Q9NVX2": "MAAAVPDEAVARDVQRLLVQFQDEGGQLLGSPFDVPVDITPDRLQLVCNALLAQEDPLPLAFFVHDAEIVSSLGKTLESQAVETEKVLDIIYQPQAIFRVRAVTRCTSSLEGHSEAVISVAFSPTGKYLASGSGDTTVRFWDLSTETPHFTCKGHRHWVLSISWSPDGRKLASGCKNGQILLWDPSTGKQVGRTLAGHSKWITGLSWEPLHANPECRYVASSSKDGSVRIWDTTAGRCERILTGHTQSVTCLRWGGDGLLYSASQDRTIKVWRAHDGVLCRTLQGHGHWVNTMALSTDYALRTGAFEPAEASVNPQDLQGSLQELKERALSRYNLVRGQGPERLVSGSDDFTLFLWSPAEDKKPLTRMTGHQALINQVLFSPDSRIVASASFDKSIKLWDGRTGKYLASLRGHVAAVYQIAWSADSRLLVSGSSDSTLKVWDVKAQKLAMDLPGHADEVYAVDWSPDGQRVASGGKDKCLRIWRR"}, "source": "paper PMC9931185", "biological_target": "E2F1 (human (human NSCLC cell lines; the line of the Co-IP is not named)) (UniProt Q01094)", "test": "co-IP; 1.0 mg protein of cell lysate incubated with antibodies at 4°C overnight, then 20 μL beads at 4°C for 2 h, washed three times, SDS-PAGE and western blot; precipitating antibody and cell line not stated", "note": "Results are given in words; binding and its absence hold for the method and conditions named. Binding seen in cells or lysates may run through a third protein. Some entries that bind do so weakly or less than the wild type."}
{"substance": "Notchless homolog 1 (NLE1) (from UniProt Q9NVX2 1-485)", "values": [{"measurement": "binding", "result": "binds"}]}
